Laboratory results: patent US20080152640A1, “Means and Methods For Treating a Disease Which is Associated With an Excess Transport of Hyaluronan Across a Lipid Bilayer” (priority 2003, published 2008)
At least one structure is not confirmed: it was looked up by name or label, or the drawing left a doubt.

Tested on: hyaluronan transport
Assay: Inhibition of hyaluronan transport (export) from human fibroblasts, discussion of Example 9

C/C=C/C[C@@H](C)C(=O)[C@H]1C(=O)N[C@@H](C(C)C)C(=O)N(C)CC(=O)N(C)[C@@H](CC(C)C)C(=O)N[C@@H](C(C)C)C(=O)N(C)[C@@H](CC(C)C)C(=O)N[C@@H](C)C(=O)N[C@H](C)C(=O)N(C)[C@@H](CC(C)C)C(=O)N(C)[C@@H](CC(C)C)C(=O)N(C)[C@@H](C(C)C)C(=O)N1C [Valspodar, cyclosporin D, 6-[(2S, 4R, 6E)-4-methyl-2 (methylamino)-3-oxo-6-octenoic acid]-(9CI)]
inhibition of hyaluronan transport (words): inhibited also hyaluronan synthesis
